# In PubChem BioAssay AID1508600 (Functional Genomics Laboratory (NCATS/FGL), 2020):
# In all, about 53,000 sequences went through this assay and about 3,700 (7%) were called active.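 Rule for the calls: active = gene knockdowns whose robust z-score for IL-1 alpha signal is at least 2 or at most -2, so actives lie on both sides; inactive = the rest.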 The list shows a part of the results.
# Test: Components of the Cytosolic LPS Sensing Pathway: Gene Identification via Genome-wide siRNA Screen;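 note: robust z of the log signal after scaling to non-targeting control siRNA wells of the plate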
# Conditions: RAW264.7 macrophages, IL-1a HTRF, actives lie on both sides, screened at 100 nM (by protocol), cells primed 5 h with Pam3CSK4 first
# Method in brief: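 Cells (RAW264.7, 1×10^4 per well) were transfected with siRNA at 100 nM and cultured 48h at 37 degrees C. Pam3CSK4 was added for 5 hours; LipidA transfection followed for 24 hour. IL-1a was then measured by HTRF.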
row,Sequence,z-score
1,GGUGCCAACAAUACUAAACTT against Mycbp2,inactive: 1.9
2,UGAUAUCGGAACAGAGAUGTT against Tbx15,inactive: -0.467
3,GGUCCCAGCAUGUUUACGUTT against Slc2a12,active: 3.04
4,GGUAAAGCCUUUCAGGAAGTT against Tmem80,inactive: -0.946
5,GGGUGAAGGUGAAUAUUUATT against Esm1,inactive: -1.12
6,GCUAGGUACUGGGUUUUGCTT against Adora2b,inactive: 1.38
7,GGUGAAGUUAAAAUGAACUTT against Cul2,inactive: 1.33
8,GGCGAUCCACAGGAACUCUTT against Tiam1,inactive: -1.23
9,GGAUUUAGCUAAGAGAGGGTT against Zmat3,inactive: -0.125
10,GGUCUAUCCUACAGCUGAGTT against Prl8a9,inactive: 0.785
11,GGCGACGAGUUUGAUGACUTT against Eid1,inactive: -1.98
12,GGAGACCUGAAUUUUUCAGTT against Tab2,inactive: 0.469
13,GGAUUAAAUGGUGGUGGAGTT against Dnajb6,inactive: -1.1
14,GGAGCGAUACCACAGUUUATT against Rab5b,inactive: 0.4
15,GGAAGAGAAUAACUCAUCATT against Dmac2l,inactive: 0.0977
16,GAUGAGAGACAAAUUCCCATT against Il11,inactive: -0.628
17,GCCCUGAGGAAGGUACUAATT against Olfr479,inactive: -0.369
18,GGCCAAGAAGACAAGAAAATT against Ddx54,inactive: 0.502
19,GGAUCUGCCUGAUCAAAAGTT against Ivl,inactive: -0.497
20,GGGUCAUGAAGUGAUGGUUTT against Ugt2b34,inactive: -0.394
21,GGAAAGCUGGUGAUGCUCGTT against Rasal3,inactive: -0.133
22,GCCUAUAACUUCAAGUAUCTT against Gpn1,inactive: -1.06

row,Sequence,z-score
1,GGAUUACAGGCAUUUGGUUTT against Hmgn1,active: 3.01
2,GGUCCCAAGUCCCUAAGAUTT against Ankrd33,inactive: 0.711
3,GGUGGGCCUUUGUCUCAACTT against Ttll3,inactive: -0.197
4,GGAUUUCCUAGUAUCUAUGTT against Sptb,inactive: 0.564
5,GGAGAUCGACGAAUACAUCTT against Reep2,inactive: 0.446
6,GGUUUUCUGGAAGUACUUGTT against Spag17,inactive: 0.142
7,GCAUCAAACCUGGUUCGAATT against Mast2,inactive: -0.306
8,CCUGAAUUCUACAAGGUUATT against Plg,inactive: 1.1
9,GGUAGCUGUGAAGAUCAUCTT against Mark2,inactive: -0.447
10,GCACCAGUCGAAUCCUCAATT against Gpr137,inactive: -1.46
11,CCAACUACAAGACCAUCGGTT against Akp3,inactive: -0.22
12,GGCAAACCAGUGUUCCCUATT against Tmem176b,inactive: -0.873
13,GGACAUAAUUCUUUCCGUGTT against Trmt11,inactive: 0.412
14,GCCUUCUAAGUCUGCACCATT against H2bc3,inactive: -0.578
15,GCACCUCGGUCAUUUAUAUTT against Mettl14,active: -2.51
16,GGACCUAUCAACUGAGUUUTT against Hrc,inactive: 1.06
17,GGAUGAGCAAGAAAUCCCUTT against Ccdc137,inactive: -0.873
18,GGAAGGAGUAUGAAAAGAATT against Scgb3a2,inactive: -1.19
19,GGUACUUUGGAAAGAAGAGTT against Yeats4,inactive: -1.27
20,GCUACGGCCAGACGAACUUTT against A430005L14Rik,inactive: 1.32
21,CGGUAUGAGUAGGAUCUCCTT against Cd83,inactive: -0.577
22,GGAAAUACCCUGAUAGCCATT against Etl4,inactive: 0.215

# Reformatted with bars between the fields: part of the list above.
row | Sequence | z-score
2 | UGAUAUCGGAACAGAGAUGTT against Tbx15 | inactive: -0.467
3 | GGUCCCAGCAUGUUUACGUTT against Slc2a12 | active: 3.04
5 | GGGUGAAGGUGAAUAUUUATT against Esm1 | inactive: -1.12
6 | GCUAGGUACUGGGUUUUGCTT against Adora2b | inactive: 1.38
7 | GGUGAAGUUAAAAUGAACUTT against Cul2 | inactive: 1.33
8 | GGCGAUCCACAGGAACUCUTT against Tiam1 | inactive: -1.23
9 | GGAUUUAGCUAAGAGAGGGTT against Zmat3 | inactive: -0.125
10 | GGUCUAUCCUACAGCUGAGTT against Prl8a9 | inactive: 0.785
11 | GGCGACGAGUUUGAUGACUTT against Eid1 | inactive: -1.98
13 | GGAUUAAAUGGUGGUGGAGTT against Dnajb6 | inactive: -1.1
16 | GAUGAGAGACAAAUUCCCATT against Il11 | inactive: -0.628
18 | GGCCAAGAAGACAAGAAAATT against Ddx54 | inactive: 0.502
20 | GGGUCAUGAAGUGAUGGUUTT against Ugt2b34 | inactive: -0.394
21 | GGAAAGCUGGUGAUGCUCGTT against Rasal3 | inactive: -0.133
8 | CCUGAAUUCUACAAGGUUATT against Plg | inactive: 1.1
11 | CCAACUACAAGACCAUCGGTT against Akp3 | inactive: -0.22
13 | GGACAUAAUUCUUUCCGUGTT against Trmt11 | inactive: 0.412
14 | GCCUUCUAAGUCUGCACCATT against H2bc3 | inactive: -0.578
17 | GGAUGAGCAAGAAAUCCCUTT against Ccdc137 | inactive: -0.873
19 | GGUACUUUGGAAAGAAGAGTT against Yeats4 | inactive: -1.27
20 | GCUACGGCCAGACGAACUUTT against A430005L14Rik | inactive: 1.32
21 | CGGUAUGAGUAGGAUCUCCTT against Cd83 | inactive: -0.577

# Remaining list, next part

row,Sequence,z-score
1,GCACUUACUCCUUAACUCUTT against Cdk2ap2,inactive: -0.46
2,GGGCUGGAAUAAACUUGUCTT against Usp15,inactive: -1.2
3,GGAGAUUGGCAUAGAGAAGTT against Myo5b,inactive: 0.437
4,GGAAACAACUGAUGACUUATT against Slc7a8,inactive: 0.408
5,GGCUGUGCUUUACAACUUUTT against Olfr982,inactive: 0.289
6,GCUCCUUUAUAUUCAACUGTT against Ddx11,inactive: 1.4
7,GGCUUUUAGACAUUUAUCUTT against Pdlim3,inactive: -0.681
8,GCUUCCAAGACCCUAAAGCTT against Usp17lb,inactive: 0.215
9,GCUAAUUCAUGAAUUGAUGTT against Ofd1,inactive: 1.01
10,AGGAAAGCUUUCUUCACCUTT against Olfr206,inactive: -0.408
11,GGGCAGAAGCUGUGAAAUCTT against Map11,inactive: -1.08
12,GGCCUGUUUUGUGAACUGCTT against Timm8a1,inactive: -0.795
13,GCUACAUUCAGGAACCACATT against Usp48,inactive: 0.484
14,CCCUAUCAUCGAUGGUCGCTT against Rbm38,inactive: 0.291
15,CCCUAAGACUAUGGAGGCCTT against Spdye4a,inactive: 0.0656
16,GCGGUAGUUUCACACUUAUTT against Onecut1,inactive: 0.987
17,GCUAUCGUUCGUCCAGCAUTT against Atf2,inactive: -1.17
18,CCAUUUGAUCAAGCUUUAGTT against Spock3,inactive: 0.0957
19,GGAAACAUCAGUGAGUCCGTT against Igfbp3,inactive: 0.447
20,GCCUCAAGAAUACGACGAUTT against Ift57,inactive: 0.249
21,GGUAUCAAUGAUUUUCUUGTT against Tas2r110,inactive: 0.76
22,GCAAGUCGAGGUAGAUUGCTT against Rap1a,inactive: 0.515

row,Sequence,z-score
1,GGAGAAAGAGGAACUGGACTT against Cdc37,inactive: 0.769
2,GGAAGACAAAGUCUGGGUGTT against Hpx,inactive: -0.915
3,GGAUGUAAUUUGCUCCACGTT against Jag2,inactive: -0.335
4,GCAGCAGUGCUUACUUAACTT against Ccdc25,inactive: 0.212
5,GGAGAGUCCAUACCAGAACTT against C1qa,inactive: 0.0536
6,GGAUCCACCAGUUAAGAAATT against Hdac4,inactive: -0.945
7,GGGUUGUGGUUAUCAAAUATT against Tmem200a,inactive: 1.96
8,CCACACACUGAUCAACGUGTT against Unc93b1,inactive: 0.336
9,CCAAAUGACUUUGGUCCUATT against Vax2,inactive: 0.576
10,GGUGCAUGGAAAAAAAUUATT against Neil2,inactive: -0.691
11,GGUAACACCUUCCUUUAAGTT against Pstpip2,inactive: 0.38
12,CGGAUGAUGCCUAAACUGATT against Hspe1,inactive: 0.844
13,CCAGAUCCCUGAAUUGGAATT against Myc,inactive: 1.17
14,GGUGGGUCUGUCUUAUUUATT against Csnk2a1,inactive: 0.752
15,GGGUGUUAGAAAUCAUUAUTT against Dgkd,inactive: 1.19
16,GGGAGAAGAUGAGAAGAUGTT against Casp14,inactive: -0.655
17,GCGUGAAGCACUGAGUAAGTT against Zbed3,inactive: -0.237
18,GGAGGAGAACUGUUUGACATT against Camk4,inactive: -0.68
19,GGAGAUGGAGUCAGAUAAGTT against Aloxe3,inactive: -0.642
20,GGCACAAGUUGACCAAUAUTT against Rtn1,inactive: -0.263
21,CCGUGCCAAUAGUUCUGCUTT against Dpp4,inactive: -0.7
22,GCGGUUUCGAUUUUUAGUUTT against Pde3b,inactive: 1.45

row,Sequence,z-score
1,GGCUCAGGACAAUGACUUCTT against Urgcp,inactive: -0.114
2,GGAUGCCUUCGUCAUUCUATT against Slc44a1,inactive: 0.426
3,GGACCAGCACAUGUGGAUUTT against Olfr547,inactive: 0.31
4,GGGUCAGACAGGUAUUAUATT against Crispld1,inactive: -1.06
5,GGCUCUGAAAAUUGAACACTT against Cep83,inactive: 0.0736
6,GCUGCUUUGGGCACAAGAUTT against Nppb,inactive: 0.428
7,GGUAAGAAUAAAGUCGCCGTT against Nfe2l2,inactive: 1.62
8,GUCCCAGUACCUCUUUCUUTT against Vmn1r26,inactive: -0.739
9,GCCUGAAUCUUUAAUAAUCTT against D630028G08Rik,inactive: 0.479
10,CCUUCAAUCAUGUUCUAACTT against Tmem229a,inactive: -0.504
11,GGAAUGAAAUCAAACUUGATT against Slc35g3,inactive: 0.66
12,GGUUCUUUUUGAAACAGUUTT against Klhl11,inactive: 0.531
13,GGAAUGGUUUUUGAAGAGGTT against Rhox2a,inactive: -0.589
14,GGCAAAGAUAAAAUGCUGATT against Pclaf,inactive: 0.732
15,GGAUGUCAGUGUUGCAAUGTT against Olfr954,inactive: 0.191
16,CGACAUUAGAGAAAGUCAUTT against Hyou1,inactive: 0.0878
17,GGCUACAACCAAAUCUUCATT against Papln,inactive: 0.873
18,GGGAGAUAUGCAAUGAAUATT against Creb5,inactive: -1.34
19,GCGUGCUACCUGAAUAAGATT against H2bu2,inactive: -0.303
